{
  "source": "paper PMC12187018",
  "target": "T1, Flag-P2X7 (R) (UniProt Q99572)",
  "T1 sequence": "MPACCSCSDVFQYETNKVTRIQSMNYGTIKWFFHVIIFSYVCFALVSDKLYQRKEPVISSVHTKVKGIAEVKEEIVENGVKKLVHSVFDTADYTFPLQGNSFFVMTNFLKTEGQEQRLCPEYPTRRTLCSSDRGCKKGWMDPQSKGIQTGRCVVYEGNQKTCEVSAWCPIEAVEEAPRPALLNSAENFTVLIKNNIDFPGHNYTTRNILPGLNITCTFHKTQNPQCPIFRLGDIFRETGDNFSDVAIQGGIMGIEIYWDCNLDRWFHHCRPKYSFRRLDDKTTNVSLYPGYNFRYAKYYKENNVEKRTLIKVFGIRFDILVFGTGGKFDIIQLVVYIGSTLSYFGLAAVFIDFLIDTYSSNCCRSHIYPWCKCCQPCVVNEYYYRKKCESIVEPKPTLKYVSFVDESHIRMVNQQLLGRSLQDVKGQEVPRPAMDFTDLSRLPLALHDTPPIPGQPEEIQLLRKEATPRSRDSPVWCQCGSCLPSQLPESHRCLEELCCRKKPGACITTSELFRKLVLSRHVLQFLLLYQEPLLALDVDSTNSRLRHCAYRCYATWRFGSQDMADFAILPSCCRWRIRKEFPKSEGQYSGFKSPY",
  "experiment": "co-IP; 293T cells co-transfected with HA-Env (virulent or vaccine) and one Flag-tagged host protein; lysis in 1% Triton X-100, 50 mM Tris-HCl pH 7.4, 150 mM NaCl; anti-Flag or anti-HA magnetic beads overnight; also done with 50 μM KCl (S2 Fig B-C)",
  "note": "These are yes or no findings as the source states them, for the method shown. In cells and extracts the contact can be indirect. A result given as binding can be weak or reduced; the word gives no strength. Sequences can lack the tags named with a protein.",
  "data": [
    {"substance": "HA-Env of the attenuated EIAV vaccine strain (vaccine-Env)", "values": [
      {"measurement": "binding", "result": "binds"}
    ]}
  ]
}
